Results published in paper PMC8748728.
No constants are given. Whether binding was seen depends on the method and setting. In cells and extracts the contact can be indirect. Some entries that bind do so weakly or less than the wild type.

Amino acid sequences for entries named in this document (tags omitted).
UniProt Q13546: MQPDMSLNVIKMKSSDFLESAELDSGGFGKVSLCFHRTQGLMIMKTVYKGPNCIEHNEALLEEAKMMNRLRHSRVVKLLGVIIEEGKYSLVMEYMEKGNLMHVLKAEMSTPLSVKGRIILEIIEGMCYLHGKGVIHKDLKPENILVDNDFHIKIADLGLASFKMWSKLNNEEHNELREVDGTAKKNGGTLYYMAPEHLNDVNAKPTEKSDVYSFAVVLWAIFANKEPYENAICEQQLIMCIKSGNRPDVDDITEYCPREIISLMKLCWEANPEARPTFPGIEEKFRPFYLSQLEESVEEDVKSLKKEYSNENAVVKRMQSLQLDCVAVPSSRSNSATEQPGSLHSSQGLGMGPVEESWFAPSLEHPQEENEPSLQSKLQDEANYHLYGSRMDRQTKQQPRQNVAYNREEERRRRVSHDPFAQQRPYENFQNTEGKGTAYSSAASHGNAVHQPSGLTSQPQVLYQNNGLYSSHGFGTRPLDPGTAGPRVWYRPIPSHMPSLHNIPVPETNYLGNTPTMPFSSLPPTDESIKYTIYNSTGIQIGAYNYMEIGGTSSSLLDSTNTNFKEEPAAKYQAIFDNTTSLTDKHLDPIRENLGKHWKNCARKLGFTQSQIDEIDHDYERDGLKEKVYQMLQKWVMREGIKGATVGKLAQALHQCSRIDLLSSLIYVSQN

Target: SQSTM1/p62 (human (endogenous in HLE-B3)) (UniProt Q13501)
Test: co-IP; endogenous proteins; WT and ATG7 KO HLE-B3 cells treated with 200 μM H2O2 for indicated times; lysed in ice-cold NP-40 buffer with PMSF and phosphatase inhibitors; 2 μg/ml antibody (anti-p62, PKCι, RIP1 or TRAF6) overnight at 4 °C, protein G dynabeads 2 h at RT; immunoblot

Molecule: RIP1 (receptor-interacting protein kinase 1) (from UniProt Q13546 1-671)
- binding: binds

B1: PKCι (protein, UniProt P41743 1-596)
chain: MPTQRDSSTMSHTVAGGGSGDHSHQVRVKAYYRGDIMITHFEPSISFEGLCNEVRDMCSFDNEQLFTMKWIDEEGDPCTVSSQLELEEAFRLYELNKDSELLIHVFPCVPERPGMPCPGEDKSIYRRGARRWRKLYCANGHTFQAKRFNRRAHCAICTDRIWGLGRQGYKCINCKLLVHKKCHKLVTIECGRHSLPQEPVMPMDQSSMHSDHAQTVIPYNPSSHESLDQVGEEKEAMNTRESGKASSSLGLQDFDLLRVIGRGSYAKVLLVRLKKTDRIYAMKVVKKELVNDDEDIDWVQTEKHVFEQASNHPFLVGLHSCFQTESRLFFVIEYVNGGDLMFHMQRQRKLPEEHARFYSAEISLALNYLHERGIIYRDLKLDNVLLDSEGHIKLTDYGMCKEGLRPGDTTSTFCGTPNYIAPEILRGEDYGFSVDWWALGVLMFEMMAGRSPFDIVGSSDNPDQNTEDYLFQVILEKQIRIPRSLSVKAASVLKSFLNKDPKERLGCHPQTGFADIQGHPFFRNVDWDMMEQKQVVPPFKPNISGEFGLDNFDSQFTNEPVQLTPDDDDIVRKIDQSEFEGFEYINPLLMSAEECV
- binding: binds
